According to PubChem BioAssay AID1671190 (National Center for Advancing Translational Sciences (NCATS), 2021):
Where “and” joins values, the source holds several entries; their conditions need not be identical. Equal values may be shown once. Hit rate of the full screen: of about 580,000 compounds, about 6,100 (1.1%) were called active. This list was built around the results that the source calls inconclusive (neither active nor inactive); the mix of calls is not that of the screen. Calls come from the whole dose curve; as a rule, active = well fitted inhibition curve with a large enough effect; inconclusive = small, poorly fitted or top-dose-only effect, or another doubt; inactive = no such curve, though single readings can be large or run the other way. A potency beside an inconclusive call is a rough fit, not a confirmed value.

Amino acid sequences for entries named in this document (tags omitted). A change or cut given only in a name is not applied to a line headed by its entry.
UniProt P18054: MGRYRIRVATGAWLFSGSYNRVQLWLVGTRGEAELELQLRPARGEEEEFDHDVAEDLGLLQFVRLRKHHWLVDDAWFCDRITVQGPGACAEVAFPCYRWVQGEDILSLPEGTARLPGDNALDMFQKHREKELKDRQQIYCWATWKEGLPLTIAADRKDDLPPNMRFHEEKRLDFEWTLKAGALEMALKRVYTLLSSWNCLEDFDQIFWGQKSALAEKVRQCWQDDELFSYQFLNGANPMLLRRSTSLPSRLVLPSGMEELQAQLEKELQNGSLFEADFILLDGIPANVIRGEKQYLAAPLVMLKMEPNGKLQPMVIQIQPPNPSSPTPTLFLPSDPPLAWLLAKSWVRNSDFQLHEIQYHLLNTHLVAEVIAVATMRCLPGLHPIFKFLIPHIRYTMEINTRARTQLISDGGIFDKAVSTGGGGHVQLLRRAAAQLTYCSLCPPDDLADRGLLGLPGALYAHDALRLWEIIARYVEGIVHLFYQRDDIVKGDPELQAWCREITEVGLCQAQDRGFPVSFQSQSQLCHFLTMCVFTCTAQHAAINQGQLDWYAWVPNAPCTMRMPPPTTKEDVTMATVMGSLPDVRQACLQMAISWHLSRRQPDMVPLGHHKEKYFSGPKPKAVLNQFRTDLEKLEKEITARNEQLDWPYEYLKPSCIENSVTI

Target: Polyunsaturated fatty acid lipoxygenase ALOX12 (Homo sapiens) (UniProt P18054)
Test: Primary qHTS assay for inhibitors of human arachidonate 12S-lipoxygenase (ALOX12): Round 2
Settings: purified 12hLO, xylenol orange hydroperoxide absorbance; activity change, negative = inhibition: at 108 µM (top of the series) unless noted
In short: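 Purified human 12hLO at 150 nM in 25 mM Hepes, 0.01% Triton X-100, pH 7.0, preincubated 15 min at room temperature with compound. Reaction started with 40 uM arachidonic acid, 30 min at room temperature. Hydroperoxide measured by Fe-xylenol orange, 573/405 nm absorbance ratio.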
% is set by controls: 0 for no effect and ±100 for the full control effect; potency is the fitted concentration of half-maximal effect.

`Cc1cccc2sc(N(CCCN(C)C)C(=O)c3nc4ccccc4s3)nc12` was tested. Which “activity change, negative = inhibition” value did it give?
The value was inactive: -11.6%.

Which Potency does the source give for `CC1CCN(C(=O)CN2c3ccc(C(C)C)cc3-c3ccccc3S2(=O)=O)CC1` here?
Its Potency is inconclusive: 0.501 µM [inhibitor, full curve, poor fit].

`Cc1cc(-c2ccccc2)n2nc(-c3cccc(Br)c3)cc2n1` was tested. Which Potency did it give?
The Potency was inconclusive: 112 µM [inhibitor, partial curve, poor fit].

How did the Potency turn out when `Cc1ccc(NC(=O)C(C)C)c(Br)c1` was run?
Its Potency is inconclusive: 158 µM [inhibitor, single point].

How did the “activity change, negative = inhibition” value turn out when `COCc1ccc(C(=O)N(C)CC2CCCN(CCc3ccc(Cl)cc3)C2)o1` (centres undefined) was run?
The value was inactive: 69.2%.

With `O=C(CSc1nc(C2CC2)nc2ccccc12)Nc1ccccc1Cl` as the compound, how does the Potency read?
Its Potency is inconclusive: 6.31 µM [inhibitor, full curve, poor fit].

`COC(=O)c1cn(C)c2ccc(S(=O)(=O)N3CCOCC3)cc2c1=O` was tested. Which “activity change, negative = inhibition” value did it give?
Its value is inactive: -12.1%.

Which Potency does the source give for `CCCCCn1nc(C(=O)Nc2cccc(C(C)=O)c2)c2ccccc2c1=O` here?
The Potency was inconclusive: 3.98 µM [inhibitor, single point].

`CN1CCN(Cc2nc3c(c(=O)n(C)c(=O)n3C)n2Cc2ccccc2F)CC1` was tested. Which Potency did it give?
Its Potency is inconclusive: 141 µM [inhibitor, single point].

`Cc1ccc(Cn2c(/C=C/c3ccco3)nc3ccccc32)cc1` was tested. Which Potency did it give?
The Potency was active: 15.8 µM.

For `Cc1cc(SCC(=O)Nc2c(F)cccc2F)nc2ccccc12`, which Potency is on record?
The Potency was inconclusive: 56.2 µM [inhibitor, single point].

`Cc1nc2ccc(C(=O)NC(C3CC3)C3CC3)cc2nc1C` was tested. Which “activity change, negative = inhibition” value did it give?
The value was inactive: 6.75%.

For `Cc1ccc(-c2c(C(=O)NCc3ccc(F)cc3)oc(=O)c3ccccc23)cc1`, which Potency is on record?
Its Potency is “inactive”.

`Cc1cccc(C(=O)O)c1NC(=O)c1ccc(F)cc1` was tested. Which “activity change, negative = inhibition” value did it give?
Its value is inactive: 46.4%.

`COc1ccc(-c2noc(CCC(=O)N3CCN(c4ccccc4C(F)(F)F)CC3)n2)cc1` was tested. Which “activity change, negative = inhibition” value did it give?
Its value is inactive: -17.9%.

With `CCN1C(=NCc2ccc(OC)cc2)N[C@@H](c2ccccc2)[C@H](C(=O)OC)[C@H]1C` as the compound, how does the Potency read?
The Potency was inconclusive: 79.4 µM [inhibitor, single point].

`CCSCc1nnc(SCC(=O)c2ccc(OC)cc2)n1C` was tested. Which Potency did it give?
Its Potency is inconclusive: 79.4 µM [inhibitor, partial curve, poor fit].

For `Cc1ccccc1NC(=O)Cn1c(=O)n(Cc2ccc3c(c2)OCO3)c(=O)c2ccc(C(=O)NC3CCCCC3)cc21`, which “activity change, negative = inhibition” value is on record?
The value was inactive: -16.2%.

How did the “activity change, negative = inhibition” value turn out when `Cc1cccc(C(=O)Nc2ccc(O)c(-c3nc4cc(C)ccc4o3)c2)c1` was run?
The value was inactive: 0.663%.

For `CSc1nc(N)nc(SCC(=O)Nc2cccc(F)c2)c1C#N`, which “activity change, negative = inhibition” value is on record?
The value was inactive: -3.93%.

`O=C(O)CCC(NC(=O)c1cncc(O)c1)C(=O)O` (centres undefined) was tested. Which Potency did it give?
Its Potency is inconclusive: 100 µM [inhibitor, single point].

`N#Cc1ccc(CN2CCC3(CC2)CCN(C(=O)c2cc(C(F)(F)F)cc(C(F)(F)F)c2)CC3)cc1` was tested. Which “activity change, negative = inhibition” value did it give?
The value was inactive: -2.44% [at 57.4 µM].

`COc1ccc(C(=O)C2CCCN(Cc3cccn3-c3nccs3)C2)cc1OC` (centres undefined) was tested. Which “activity change, negative = inhibition” value did it give?
Its value is inactive: 3.01%.

With `CC(=O)c1ccccc1NC(=O)COc1ccccc1C(N)=O` as the compound, how does the “activity change, negative = inhibition” value read?
The value was inactive: 3%.

For `COc1ccc(-c2cc(C(=O)Nc3cccc(O)c3)no2)cc1`, which Potency is on record?
Its Potency is inconclusive: 44.7 µM [inhibitor, single point].

`COc1ccc(CCCc2nnc(SCC(=O)Nc3ccc(F)cc3)o2)cc1C` was tested. Which Potency did it give?
The Potency was inconclusive: 44.7 µM [inhibitor, partial curve, poor fit] and inconclusive: 31.6 µM [inhibitor, partial curve, poor fit].

`CCN(CC)C(=O)CNC(=O)Cc1ccc(Cl)cc1` was tested. Which Potency did it give?
Its Potency is inconclusive: 5.01 µM [inhibitor, full curve, poor fit].

For `CC1=CC(c2ccccc2)n2nc(NC(=O)CCC(=O)O)nc2N1` (centres undefined), which “activity change, negative = inhibition” value is on record?
Its value is inactive: -14.6%.

With `O=C(Cn1cnc2onc(-c3ccc(F)cc3)c2c1=O)Nc1cccc(C(F)(F)F)c1` as the compound, how does the Potency read?
The Potency was inconclusive: 50.1 µM [inhibitor, partial curve, poor fit].

`COCCn1c(SCc2ccccc2Cl)nc2c1c(=O)[nH]c(=O)n2C` was tested. Which Potency did it give?
The Potency was inconclusive: 44.7 µM [inhibitor, partial curve, poor fit].

With `COc1cc(/C=C2\C(=N)N3N=CSC3=NC2=O)ccc1OS(=O)(=O)c1ccccc1` as the compound, how does the “activity change, negative = inhibition” value read?
Its value is inactive: -4.9%.

For `CN(Cc1ccccc1)C(=O)c1cccc(NC(=O)Cc2ccc(NC(=O)C3CCCN(C(=O)CCc4ccccc4)C3)cc2)c1` (centres undefined), which “activity change, negative = inhibition” value is on record?
The value was inactive: 0%.

With `CC(Sc1nc(-c2ccccc2)cc(=O)[nH]1)C(=O)O` (centres undefined) as the compound, how does the Potency read?
The Potency was inconclusive: 50.1 µM [inhibitor, partial curve, poor fit].

How did the “activity change, negative = inhibition” value turn out when `Cc1oc2cc(OCC(=O)Nc3ccccc3F)ccc2c(=O)c1Oc1ccccc1` was run?
Its value is inactive: 5.76%.

For `Cn1nccc1C(O)c1cc2n(n1)CCN(C(=O)CCN1CCCO1)C2` (centres undefined), which “activity change, negative = inhibition” value is on record?
Its value is inactive: 28.5%.

How did the Potency turn out when `O=C(NCSc1ccncn1)c1ccccc1` was run?
Its Potency is inconclusive: 2.24 µM [inhibitor, full curve].

Which Potency does the source give for `Cc1cc(C)cc(CC(=O)N2CCC2(C)C(=O)NS(=O)(=O)c2ccccc2C)c1` (centres undefined) here?
Its Potency is inconclusive: 89.1 µM [inhibitor, single point].

With `COc1ccc(OC)c(NC(=S)NCCC(c2ccccc2)c2ccccc2)c1` as the compound, how does the Potency read?
Its Potency is active: 8.91 µM.

With `COc1ccc(N=C(NN)c2ccc3ccccc3n2)cc1` as the compound, how does the Potency read?
Its Potency is inconclusive: 89.1 µM [inhibitor, partial curve, poor fit].

With `Cc1ccc(NC(=O)N2CCCC(c3nnc(CN(C)C)n3C)C2)cc1C` (centres undefined) as the compound, how does the Potency read?
Its Potency is inconclusive: 7.94 µM [inhibitor, full curve].

Which Potency does the source give for `Cc1cccc(OCC(=O)N(C)CCc2ccccn2)c1` here?
The Potency was inconclusive: 0.251 µM [inhibitor, full curve, poor fit].

`CCN(Cc1ccccc1)S(=O)(=O)c1ccc2c(c1)CCCN2C(C)=O` was tested. Which Potency did it give?
Its Potency is inconclusive: 56.2 µM [inhibitor, partial curve, poor fit].

Which Potency does the source give for `O=C(NC(=S)Nc1ccccc1N1CCN(C(=O)c2ccccc2)CC1)c1ccccc1F` here?
The Potency was inconclusive: 35.5 µM [inhibitor, partial curve, poor fit].

Which Potency does the source give for `CN(C)c1c([N+](=O)[O-])ncn1C` here?
The Potency was inconclusive: 15.8 µM [inhibitor, partial curve].

How did the Potency turn out when `Cc1ccc(NC(=O)c2ncn(CCCN[C@H](C)c3cccc4ccccc34)n2)cc1C` was run?
The Potency was inconclusive: 79.4 µM [inhibitor, partial curve, poor fit].

For `Cc1cccn2c(=O)c3cc(C(=O)NC(C)C)c(=N)n(Cc4ccncc4)c3nc12`, which “activity change, negative = inhibition” value is on record?
The value was inactive: 218%.

With `COc1ccc(C(=O)NC(=S)Nc2ccc(S(=O)(=O)Nc3cc(OC)ncn3)cc2)cc1` as the compound, how does the Potency read?
The Potency was active: 10 µM.

How did the Potency turn out when `COc1ccc(Cl)cc1NC(=O)CN(C)C(=O)CCCNC(=O)c1ccc(Cl)cc1` was run?
Its Potency is inconclusive: 100 µM [inhibitor, single point].

`Brc1ccccc1C1=Nn2c(nnc2-c2ccco2)SC1` was tested. Which “activity change, negative = inhibition” value did it give?
Its value is inactive: 145%.

With `COc1ccc(CCNC(=O)C2CCCN2C(=O)Nc2ccc(F)cc2)cc1OC` (centres undefined) as the compound, how does the Potency read?
Its Potency is inconclusive: 28.2 µM [inhibitor, full curve, poor fit].

How did the Potency turn out when `CCN(CC)C(=O)c1cc([N+](=O)[O-])cc2c1-c1ccc([N+](=O)[O-])cc1C2=C(C#N)C#N` was run?
The Potency was inconclusive: 31.6 µM [inhibitor, partial curve, poor fit].

`CC1CN(C(=S)Nc2ccc(F)cc2F)CC(C)O1` (centres undefined) was tested. Which Potency did it give?
Its Potency is inconclusive: 251 µM [inhibitor, partial curve, poor fit].

`O=C(c1cccnc1)N1C[C@@H]2OCC(=O)N(Cc3ccncc3)[C@@H]2C1` was tested. Which “activity change, negative = inhibition” value did it give?
Its value is inactive: 5.51% [at 176 µM].

`COC(=O)c1c(NC(=O)c2cc3ccccc3o2)sc(C)c1C` was tested. Which Potency did it give?
The Potency was inconclusive: 50.1 µM [inhibitor, partial curve, poor fit].

With `COc1cc2c(cc1OC)C(=O)C(Sc1nnc(-c3ccccc3F)o1)C2` (centres undefined) as the compound, how does the “activity change, negative = inhibition” value read?
Its value is inactive: -28.6%.

Which Potency does the source give for `COCCNc1cc(C)nc2c3c(C)cc(C)nc3nn12` here?
The Potency was inconclusive: 56.2 µM [inhibitor, partial curve, poor fit].

How did the “activity change, negative = inhibition” value turn out when `CC1=C(C(=O)N2CCCC(C(=O)c3cccc4ccccc34)C2)OCCO1` (centres undefined) was run?
Its value is inactive: 14.7%.

How did the Potency turn out when `CSc1ncccc1C(=O)OCC(=O)NC1CC1` was run?
Its Potency is inconclusive: 39.8 µM [inhibitor, partial curve, poor fit].

For `CN(C)c1cccc(C(=O)OCC(=O)N(C)c2ccccc2)c1`, which “activity change, negative = inhibition” value is on record?
Its value is inactive: -6.69%.

Which “activity change, negative = inhibition” value does the source give for `COc1cc(NC2=Nc3cccc4cccc2c34)cc(OC)c1OC` here?
The value was inactive: -19.6%.

With `COC(=O)Cn1c(CN2CCC(Cc3ccccc3)CC2)nc2c1c(=O)n(C)c(=O)n2C` as the compound, how does the Potency read?
The Potency was inconclusive: 70.8 µM [inhibitor, partial curve, poor fit].

How did the Potency turn out when `O=C(N[C@H]1CCN2C(=O)c3cc(-c4ccccc4F)ccc3NC(=O)[C@H]12)c1cccs1` was run?
Its Potency is inconclusive: 20 µM [inhibitor, full curve, poor fit].

For `Cc1ccc(C)c(-c2nc3ccccc3c(C(=O)O)c2C)c1`, which Potency is on record?
Its Potency is inconclusive: 28.2 µM [inhibitor, partial curve].

For `COc1ccc(NS(=O)(=O)c2cc(NC(=O)CNC(=O)c3cccc(OC)c3)ccc2C)cc1`, which “activity change, negative = inhibition” value is on record?
The value was inactive: 5.75%.

How did the Potency turn out when `CC(C)CNC(=S)NNC(=O)c1csc2c1CCC(C)C2` (centres undefined) was run?
The Potency was inconclusive: 4.47 µM [inhibitor, full curve, poor fit].

Which Potency does the source give for `O=C(NCCN1CCC(n2c(=O)[nH]c3ccccc32)CC1)c1ccc(Cl)cc1Cl` here?
Its Potency is inconclusive: 44.7 µM [inhibitor, partial curve, poor fit].

How did the Potency turn out when `O=C(Cn1cnc(S(=O)(=O)N2CCOCC2)c1)Nc1cccc(-c2ccno2)c1` was run?
Its Potency is inconclusive: 89.1 µM [inhibitor, single point].

Which Potency does the source give for `CC(C)(C)N1C(=O)c2ccccc2NC(=O)C1C(=O)Nc1ccc(N2CCOCC2)cc1` (centres undefined) here?
The Potency was inconclusive: 126 µM [inhibitor, partial curve, poor fit].

`CCCn1c(N2CCN(CC(=O)c3c[nH]c4ccccc34)CC2)nc2c1c(=O)[nH]c(=O)n2C` was tested. Which Potency did it give?
The Potency was inconclusive: 56.2 µM [inhibitor, partial curve, poor fit].
